In PubChem BioAssay AID1347423 (Functional Genomics Laboratory (NCATS/FGL), 2020):
About 210 (0.4%) of roughly 52,000 sequences were called active.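 How the source made its calls: active means gene whose silencing raises cell survival under the drug, median off-target-corrected z-score across its silencing RNAs 2 or more; inactive means the rest.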 The list shows a part of the results.

Experiment: Resistance to Poly (ADP-Ribose) Polymerase inhibitor: Gene Identification via Genome-wide siRNA Screen
Settings: mouse BRCA2 R2336H ES cells, olaparib, CellTiter-Glo viability; hits give high values
Summary of the method: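 Genome-wide siRNA screen (3 siRNAs/gene, 20 nM) in mouse ES cells carrying hypomorphic BRCA2 R2336H; olaparib 500 nM added 48 h post-transfection, CellTiter-Glo viability 72 h later. Normalized to plate-median negative control; MAD z-scores, gene median, seed-adjusted.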

| Sequence | z-score |
| --- | --- |
| GCAACCUUAUGCUCUAUUUTT against Ythdf3 | inactive: 0.839 |
| GGAGGUGAGAAAUACAGAGTT against Dbpht2 | inactive: 0.056 |
| GCACUUUUCGGAACUAUAUTT against Rbp1 | inactive: 0.407 |
| GGGAUUCAGUAUAAAACACTT against Nup37 | inactive: -0.175 |
| CCUAUGUGUGUGAUCUUGATT against Nnmt | inactive: -0.428 |
| GGAGUAUAACUAUGGCUUCTT against 1110012M11Rik | inactive: -0.166 |
| GGCUAUAAUGAACCAGCUGTT against A130030D10Rik | inactive: -2.19 |
| GGAACUGUAUUCAUUGAUGTT against Rnpepl1 | inactive: 0.923 |
| GGUUGGGAGAAGAAACUUCTT against 2810453K03Rik | inactive: -1.63 |
| GCUAUAUGCUGAGUAUGACTT against Olfr777 | inactive: 0.305 |
| GGAAACAAGGAAACAACAGTT against 1700042N06Rik | inactive: -0.0523 |
| CCAUGACCUAGACUCUACATT against 2310075M15Rik | inactive: 0.107 |
| GGAAAAAGAUGCGACAAUGTT against A930012O16Rik | inactive: 0.723 |
| CCAUCUAGUGCUGUAUUUCTT against 0610009J22Rik | inactive: 0.358 |
| CGCAUUUCAAGGGAAAAUUTT against Tubgcp3 | inactive: -1.81 |
| CCAUGAAGAACAAGAAAACTT against 1700010D01Rik | inactive: 0.934 |
| CCAAUGGUGAUCAAAGCGGTT against 8430429K09Rik | inactive: -0.987 |
| CCUGUACCCGAACAUACCATT against 1700008G05Rik | inactive: -2.19 |
| CCACGUGUUUGCAUUCAAATT against Gdd1 | inactive: 0.222 |
| GGUUGGCUAGUCUGUCUGATT against Atp5h | inactive: -0.812 |
| CCGCCUAGCUGAUCUUGUGTT against Aldh1b1 | inactive: -1.71 |
| GCAGUCCAGUAAUUAAUUCTT against Havcr2 | inactive: 0.826 |
| CCUAAGCAGCAUUUCAAUATT against Gyg1 | inactive: 0.434 |
| GGAGCGAUUUCAUUUGGAUTT against D8Ertd594e | inactive: 0.472 |
| GGCGACAGACUUAUUAUUGTT against Prdx5 | inactive: 1.04 |
| CCCUAACUGAGGAAGGAGGTT against C130073D16Rik | inactive: 0.201 |

Copied from the results shown for reference:

| Sequence | z-score |
| --- | --- |
| CCUGUACCCGAACAUACCATT against 1700008G05Rik | inactive: -2.19 |
| CCACGUGUUUGCAUUCAAATT against Gdd1 | inactive: 0.222 |
| GGUUGGCUAGUCUGUCUGATT against Atp5h | inactive: -0.812 |

(list continues)

| Sequence | z-score |
| --- | --- |
| GGAAGACCUGAAGAAGGUGTT against Gck | inactive: -0.194 |
| UCAACUCAAACUAUGUCGATT against Hoxb4 | inactive: 0.0592 |
| GGAAACUAGAUCAUGAGAUTT against Rtkn | inactive: 0.59 |
| CCUUAAGGAACUAGGAUUCTT against Gpr49 | inactive: 0.383 |
| GCUACAAAUAUUCUUUGGCTT against Mmp20 | inactive: 0.081 |
| GGUCUUUGUGCCAAUAGAGTT against Orc3l | inactive: 0.472 |
| GCAGCAUAGAGACUAAAUCTT against Dub1 | inactive: 1.3 |
| CCUUAAAGAACUAUCAUUGTT against Senp2 | inactive: 0.321 |
| GGUGGAGUUAGAAAACUACTT against LOC210321 | inactive: 0.381 |
| GGAAUGAUUUUCUUAAGGATT against Ddr2 | inactive: -0.878 |
| GAUUACGUUGGCCUGUCUCTT against Tff3 | inactive: -0.849 |
| GAUCCAAGACAAGGAAGGCTT against Uba52 | inactive: -3.12 |
| GCUGGUUACAUGAAAUUAATT against Nup133 | inactive: -0.276 |
| GGACCUUGAGAUAUCUUUUTT against D130020L05Rik | inactive: -1.1 |
| GCUAUCCAGAUUGGUGUUATT against Tatdn1 | inactive: -0.384 |
| CAUUCCAACACUUCAAACUTT against 2410025L10Rik | inactive: 1.02 |
| GGGUCGUUGUCCCUUUGACTT against Sema4b | inactive: 0.155 |
| CCAAUAACCCAGGAGUGCUTT against Cst7 | inactive: 0.528 |
| GGACUAUAUUCAGCAGCUUTT against Mrpl22 | inactive: -0.608 |
| CCUUCUUCUUACUGAUAAUTT against Olfr1276 | inactive: -0.946 |
| GGGCCUUCAAAAAACUGCCTT against 2610027C15Rik | inactive: -0.246 |
| GCCAAAAAUAUGGGAGAUATT against Col1a1 | inactive: 0.133 |
| GGCCCUUGUUUAAAGCCAUTT against Asns | inactive: -1.53 |
| GGAAUUAUCAGCGAUAAAGTT against 1110001A07Rik | inactive: 0.15 |
| GGAUAAGCAGUACUUUAAATT against 1810011K17Rik | inactive: 1.34 |
| CCAAGUUUUCAAAACAAACTT against Aqp3 | inactive: 1.37 |

| Sequence | z-score |
| --- | --- |
| GCGGAGAUACUGGAGUUCGTT against Hes7 | inactive: 1.37 |
| GGGCAAACUCACAUCUAAATT against 9830109N13Rik | inactive: 0.447 |
| GGAAUCCCAGUGCUUGAAGTT against Efna1 | inactive: -0.104 |
| GGAAUGAUUGUCUUGAUUCTT against Olfr952 | inactive: -0.817 |
| GUAAUUCACAGUGGUCUGGTT against Mrps12 | inactive: -1.79 |
| GGAAAAAAUACCAGAAACATT against Klre1 | inactive: -0.387 |
| CCACAGGAUUUGUCUCCUCTT against Olfr328 | inactive: -1.53 |
| GCCUGGAUUAUAGGAUCACTT against Hspc171 | inactive: 0.314 |
| GGCCCUGCUUGUGUUUAAUTT against 2600016J21Rik | inactive: -1.05 |
| GGUCACUCCAUUGACUCAATT against Obrgrp | inactive: 0.699 |
| GGCCAACUGCCCUCACAUUTT against Rbbp9 | inactive: -0.352 |
| GCCCAAAUCUCAUUCAUAGTT against Kif5a | inactive: -0.861 |
| CGGUUUGGAAUGAAGAAUUTT against Rasa3 | inactive: 0.394 |
| GCGAAAUCAGUUGGUAAAUTT against Atf7 | inactive: 0.219 |
| CCGUAACAAGGAUCAGGAATT against S100a6 | inactive: 1.15 |
| GGAGGACUGGGAAGAUCAUTT against Aqp5 | inactive: 1.6 |
| GGACACUGUGAUGUGAGACTT against 2700087H15Rik | inactive: 0.684 |
| CGAGUGAAUGACUUUAACATT against Ubn1 | inactive: 0.561 |
| GCUAAGAUUCCUUCCAGUATT against Adm2 | inactive: -1.11 |
| AGGUAACAGUUCAACAGUATT against Olfr1039 | inactive: 0.0358 |
| GGAAGUUCAAGUGCUACUGTT against Zpbp2 | inactive: 0.0841 |
| CCUACCUCCUGAAUUUAUUTT against D1Bwg0212e | inactive: 2 |
| GGACUUUGAAGAGGACAAUTT against Dhx38 | inactive: -2.18 |
| CCUUAUCUGGAGUGCGAGATT against 5330427M13Rik | inactive: -1.26 |
| GGAGCAUUUGUUACAAAUUTT against Ivns1abp | inactive: -1.72 |
| GGGAAAGACGAGUCAAAGGTT against Gbx2 | inactive: -0.299 |

| Sequence | z-score |
| --- | --- |
| GCUUUCCCUUAGGCACUUUTT against 3200002M19Rik | inactive: -2.13 |
| GGUCAUGAAUUACUAUUCCTT against Pscd2 | inactive: -0.734 |
| GCUACAAUGUUUUUGGAGATT against Gc | inactive: -0.0645 |
| GAGUCCCAUUGAUAGAGGUTT against Olfr741 | inactive: 0.112 |
| GGAGGUGGAUCAAAUGGCATT against Gnrh2 | inactive: 0.673 |
| GGAGAAGCAAAACUUUUAATT against Snrpa1 | inactive: -1.26 |
| GCACAGUGACUACAUUCCUTT against Olfr479 | inactive: -1.24 |
| GGAGAAAGCAGAGAUAAAATT against Cdc2l1 | inactive: -1.5 |
| CCAUUGACUUACUUCUAAGTT against Ian6 | inactive: 1.68 |
| GGAAUUCCACCUAAAAUUGTT against Ttn | inactive: 0.334 |
| GCCGACUGGUUAAAUACAUTT against Nme3 | inactive: -0.45 |
| GGGUGGCAAGUGUACAGCUTT against Olfm3 | inactive: -0.36 |
| GCUUAUCAUCUCCAGACAGTT against 1110030H18Rik | inactive: 0.404 |
| GGCUAUGCUUUUGUCCAGUTT against Raly | inactive: 0.0172 |
| GGUCAUUUUCAGAAGGCUGTT against Lynx1 | inactive: -1.01 |
| GGUCACAGAAACACCAUGUTT against Klhdc4 | inactive: -0.887 |
| GGUUACAGUAAUUCAGUGUTT against 2610019F03Rik | inactive: -0.0409 |
| GGACCAAUGUUUUCUUCCUTT against Gngt2 | inactive: 1.04 |
| GAUGAUCAACAAUAGAUGCTT against Sprr1b | inactive: -0.21 |
| GGCUUUCACACUUGAAGAATT against D11Ertd497e | inactive: 0.244 |
| GGUUUUUAGCAGUUGUAGUTT against Adam3 | inactive: 0.42 |
| GGGAAGUUGUCUGACUAUUTT against Cyc1 | inactive: 0.639 |
| CCUGAGAACAUUUUAAUCATT against Tas2r116 | inactive: -0.685 |
| GGCUCAAGCUAUGAAGAGATT against Gstm4 | inactive: -1.09 |
| GGAUAAUACAGAACAAAAGTT against 5730458D16Rik | inactive: 0.382 |
| GGAUGAAAUUGGAAAGGGCTT against Camkk2 | inactive: 1.9 |
